In the assay the target is HscA-GFP fusion protein from the A. fumigatus hscA-gfp strain (Aspergillus fumigatus) (UniProt Q4WCM2). Description: co-IP.

Results are given in words; binding and its absence hold for the method and conditions named. Binding seen in cells or lysates may run through a third protein. A result given as binding can be weak or reduced; the word gives no strength.

As to “human p11 protein (S100A10, light chain of annexin A2) (from UniProt P60903 1-97)”, the binding entry is “binds”.

The values are drawn from doi:10.1101/2022.05.18.492126.
